The target of experiment [1] is fusion protein in which the extracellular domain of human GITR is fused with EGFP, on HEK293 cells (human). In words: flow cytometry, hybridoma supernatant on hGITR-EGFP cells, anti-mouse Ig-PE. (In general: Flow cytometry measures light scatter and fluorescence of single cells or particles in a stream.)
Experiment [2] deals with fusion protein in which the extracellular domain of human GITR is fused with the domain of human IgG1-Fc (human). In words: ELISA, hGITR-Fc coated at 2 ug/ml, hybridoma supernatant, anti-mouse IgG-HRP; clones with OD>0.8 judged positive. A general note: In an ELISA, binding on a coated surface is turned into a signal by an enzyme label.
Experiment [3] has as its target fusion protein in which the extracellular domain of human GITR is fused with EGFP, on HEK293 cells (human). In words: flow cytometry, 10 ug/ml C3E2 on hGITR-EGFP HEK293 cells, anti-human Ig-PE.

No constants are given. Whether binding was seen depends on the method and setting. Some entries that bind do so weakly or less than the wild type.

B1: isolated antigen-binding protein 3E2 (mouse hybridoma monoclone) (antibody, V domains shown)
VH: QVQLQESGPGILQPSQTLSLTCSFSGFSLSTFGMGVGWIRQPSGKGLEWLVLILWNDIKYYNPALKSLLTVSKDTSNNQVFLKIASVDTADTATYYCARVDGYYGYFDVWGTGTTVTVSS
VL: DIVMTQSPLSLPVSLGDQASISCRSSQTIVHSNGNTYLEWYLQKPGQSPKLLIYKVSNRFSGVPDRFSGSGSGTDFTLKISRVEAEDLGVYYCFQGSHVPWTFGGGTKLEIK
Regarding B1, the binding entry in experiment [1] and in experiment [2] was “binds” throughout.

B2: isolated antigen-binding protein C3E2 (antibody, human IgG1, kappa, V domains shown)
VH: QVQLQESGPGILQPSQTLSLTCSFSGFSLSTFGMGVGWIRQPSGKGLEWLVLILWNDIKYYNPALKSLLTVSKDTSNNQVFLKIASVDTADTATYYCARVDGYYGYFDVWGTGTTVTVSS
VL: DIVMTQSPLSLPVSLGDQASISCRSSQTIVHSNGNTYLEWYLQKPGQSPKLLIYKVSNRFSGVPDRFSGSGSGTDFTLKISRVEAEDLGVYYCFQGSHVPWTFGGGTKLEIKR
Consider B2, for which the binding entry in experiment [3] is given as “binds”.

For the origin of these results see patent US20220356259A1.
